System: ARPE-19 cells
Assay: Galanin ELISA of supernatants from ARPE-19 cells transfected with galanin expression constructs
Type: cell-based, human
Details: supernatant of transfected ARPE-19 cells

Row | Molecule | galanin secretion
1 | full length wild type galanin: comparative construct: wild-type human galanin pre-pro-mature-C-terminal peptide (SEQ ID NO 11) (protein, listed as Homo sapiens) MARGSALLLASLLLAAALSASAGLWSPAKEKRGWTLNSAGYLLGPHAVGNHRSFSDKNGLTSKRELRPEDDMKPGSFDRSIPENNIMRTIIEFLSFLHLKEAGALDRLLDLPAAASSEDIERS | leads to secretion of galanin
2 | ppGDNF fused to mature galanin: comparative construct: ppGDNF fused to mature human galanin peptide (SEQ ID NO 12) (protein, listed as Homo sapiens) MKLWDVVAVCLVLLHTASAFPLPAGKRPPEAPAEDRSLGRRRAPFALSSDSNMPEDYPDQFDDVMDFIQATIKRLKRGWTLNSAGYLLGPHAVGNHRSFSDKNGLTS | lead to secretion, but the propeptide was not processed
